Reference: the supplement of paper PMC12823440, “Inhibitors supercharge kinase turnover through native proteolytic circuits” (Nature, 2025)
Where a name gives a salt, the structure may show the parent alone. Some of the results follow. The calls rarely recur for the same compound in another form.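 Kinases were expressed as nanoluciferase fusions in K562 cells and luminescence was read every 4 h between 2 and 18 h as percent of control, DMSO set to 100% and a positive control to 0%. A time point counts as decreased when the signal drops significantly (2 sigma). The hit call is the authors' own, does not follow from the count of time points alone, and its rule is not shown.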

Amino acid sequences for entries named in this document (tags omitted).
UniProt P53350, whole entry: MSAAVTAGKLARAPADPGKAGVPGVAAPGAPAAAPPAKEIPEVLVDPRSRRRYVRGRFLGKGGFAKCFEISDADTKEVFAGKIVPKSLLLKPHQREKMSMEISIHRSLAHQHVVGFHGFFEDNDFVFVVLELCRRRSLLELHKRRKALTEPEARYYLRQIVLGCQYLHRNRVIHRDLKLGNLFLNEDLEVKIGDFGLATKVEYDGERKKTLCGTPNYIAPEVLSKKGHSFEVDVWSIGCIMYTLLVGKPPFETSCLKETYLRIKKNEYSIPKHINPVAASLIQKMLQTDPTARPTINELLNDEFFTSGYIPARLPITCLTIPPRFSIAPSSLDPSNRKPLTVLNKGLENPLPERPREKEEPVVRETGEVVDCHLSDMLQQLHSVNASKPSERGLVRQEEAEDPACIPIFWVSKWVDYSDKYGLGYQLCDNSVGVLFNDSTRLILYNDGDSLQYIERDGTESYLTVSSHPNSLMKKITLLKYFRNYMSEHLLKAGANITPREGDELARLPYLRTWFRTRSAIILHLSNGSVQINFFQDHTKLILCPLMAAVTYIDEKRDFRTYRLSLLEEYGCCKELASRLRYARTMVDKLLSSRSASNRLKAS

target: PLK1 (UniProt P53350); experiment: kinase-Nluc reporter destabilization hit call (1 = scored as downregulated) (binary); higher = compound decreases kinase abundance; details: 2.5 µM; K562; 2-18 h

kinase-Nluc reporter destabilization hit call, inactive:
CN1CCCN(C(=O)c2cccc(-c3ccc(/C=C4/C(=O)Nc5ccc(Cl)cc54)o3)c2)CC1 [CX-6258 (hydrochloride)] 0, Clc1ccc(C2(c3ccc(-c4cn[nH]c4)cc3)CCNCC2)cc1 [AT7867 (dihydrochloride)] 0, CC(C)Oc1ccc(-c2nn([C@@H](C)c3oc4ccc(F)cc4c(=O)c3-c3cccc(F)c3)c3ncnc(N)c23)cc1F [Umbralisib] 0, C=CC(=O)Nc1cc(Nc2nccc(-c3cn(C)c4ccccc34)n2)c(OC)cc1N(C)CCN(C)C [Osimertinib] 0, COc1cc2c(Oc3ccc4[nH]c(C)cc4c3F)ncnc2cc1OCCCN1CCCC1 [Cediranib (maleate)] 0, CC(C)Oc1ccc(-c2nn([C@@H](C)c3oc4ccc(F)cc4c(=O)c3-c3cccc(F)c3)c3ncnc(N)c23)cc1F [Umbralisib (hydrochloride)] 0, COc1ccc(S(=O)(=O)N(CCO)c2ccccc2CN(C)C/C=C/c2ccc(Cl)cc2)cc1 [KN-93 (hydrochloride)] 0, C=CC(=O)N1CCN(c2ncnc3c(F)c(-c4c(O)cccc4F)c(Cl)cc23)CC1 0, COc1ccc(S(=O)(=O)Nc2ccccc2CN(C)C/C=C/c2ccc(Cl)cc2)cc1 [KN-92 (hydrochloride)] 0, CCN(CC)Cc1ccc(OC)c(-c2cc3c(-c4ccc(C(=O)O)c(C(C)C)c4)ccnc3[nH]2)c1 0, CN(C)C/C=C/C(=O)Nc1cc2c(Nc3ccc(F)c(Cl)c3)ncnc2cc1O[C@H]1CCOC1 [Afatinib (dimaleate)] 0, Oc1cccc(-c2nc(N3CCOCC3)c3oc4ncccc4c3n2)c1 [PI-103 (Hydrochloride)] 0, c1cc(-c2cnn3cc(-c4ccc(OCCN5CCCCC5)cc4)cnc23)ccn1 [Dorsomorphin] 0, COc1ccc(S(=O)(=O)N(CCO)c2ccccc2CN(C)C/C=C/c2ccc(Cl)cc2)cc1 [KN-93 (phosphate)] 0, Nc1ncnc2c1c(-c1ccc(Oc3ccccc3)cc1)nn2[C@@H]1CCCNC1 [IBT6A (hydrochloride)] 0

same assay, conditions: 10 µM; K562; 2-18 h

kinase-Nluc reporter destabilization hit call, inactive:
COc1cc2nccc(Oc3ccc(NC(=O)C4(C(=O)Nc5ccc(F)cc5)CC4)cc3)c2cc1OC [Cabozantinib (S-malate)] 0, Cn1cc(-c2cnc3ccc4ccc(CS(=O)(=O)NCc5ccccn5)cc4c(=O)c3c2)cn1 [MK-8033 (hydrochloride)] 0, CNC(=O)c1ccc(Nc2ncc(C(F)(F)F)c(NCc3nccnc3N(C)S(C)(=O)=O)n2)cc1 [Defactinib] 0, N#CCNC(=O)c1ccc(-c2ccnc(Nc3ccc(N4CCOCC4)cc3)n2)cc1 [Momelotinib] 0, CC(=O)c1c(C)c2cnc(Nc3ccc(N4CCNCC4)cn3)nc2n(C2CCCC2)c1=O [Palbociclib (isethionate)] 0, Nc1cncc(-c2cn3ccnc3c(Nc3ccc(N4CCN(C5COC5)CC4)cc3)n2)n1 [Lanraplenib (succinate)] 0, C#Cc1cccc(Nc2ncnc3cc4c(cc23)OCCOCCOCCO4)c1 [Icotinib] 0, O=C(O)c1ccc2c(c1)nc(Nc1cccc(Cl)c1)c1ccncc12 [Silmitasertib (sodium salt)] 0, CC(C)Nc1cc(-c2c[nH]c(C(=O)N[C@H](CO)c3cccc(Cl)c3)c2)c(Cl)cn1 [Ulixertinib (hydrochloride)] 0, C=CC(=O)N1CCN(c2ncnc3c(F)c(-c4c(O)cccc4F)c(Cl)cc23)CC1 0, CN(C)C(=O)c1cc2cnc(Nc3ccc(N4CCNCC4)cn3)nc2n1C1CCCC1 [Ribociclib] 0, COc1cc2c(-c3cnn4cc(N5CCC(N6CCN(C)CC6)CC5)cnc34)ccnc2cc1F [ALK2-IN-4 (succinate)] 0, CCN(CC)Cc1ccc(OC)c(-c2cc3c(-c4ccc(C(=O)O)c(C(C)C)c4)ccnc3[nH]2)c1 0, O=C(c1nn(-c2ccc(CN3CCOCC3)cc2)c2c1CS(=O)(=O)c1c(F)cccc1-2)N1CCOCC1 0, CC(C)(C)n1nc(-c2cccc3ccccc23)c2c(N)ncnc21 [1-Naphthyl PP1 (hydrochloride)] 0, CCN(CC)CC(=O)Nc1c(C)cccc1C [Lidocaine (hydrochloride)] 0, Cn1ncc(Cl)c1-c1cc(C(=O)N[C@H](CN)Cc2cccc(F)c2)sc1Cl [Afuresertib (hydrochloride)] 0, COc1cc2c(cc1OC)-c1c(C)c3ccc(OC)c(OC)c3c[n+]1CC2 [Dehydrocorydaline] 0, C[C@H](CCC(=O)NCCS(=O)(=O)O)[C@H]1CC[C@H]2[C@@H]3[C@@H](O)C[C@@H]4C[C@H](O)CC[C@]4(C)[C@H]3CC[C@]12C [Tauroursodeoxycholate (dihydrate)] 0, OCCn1cc(-c2cnc3nnn(Cc4ccc5ncccc5c4)c3n2)cn1 0, C[S+]([O-])c1ccc(-c2nc(-c3ccc(F)cc3)c(-c3ccncc3)[nH]2)cc1 (configuration not stated) 0, CC(C)(C)n1nc(-c2cccc3ccccc23)c2c(N)ncnc21 [1-Naphthyl PP1] 0
